# Source: PubChem BioAssay (NCATS)
# Sequences of proteins named here, by UniProt entry; tags and fusion partners are left off. A change or cut given only in a name is not applied to a line headed by its entry.
# UniProt P15289: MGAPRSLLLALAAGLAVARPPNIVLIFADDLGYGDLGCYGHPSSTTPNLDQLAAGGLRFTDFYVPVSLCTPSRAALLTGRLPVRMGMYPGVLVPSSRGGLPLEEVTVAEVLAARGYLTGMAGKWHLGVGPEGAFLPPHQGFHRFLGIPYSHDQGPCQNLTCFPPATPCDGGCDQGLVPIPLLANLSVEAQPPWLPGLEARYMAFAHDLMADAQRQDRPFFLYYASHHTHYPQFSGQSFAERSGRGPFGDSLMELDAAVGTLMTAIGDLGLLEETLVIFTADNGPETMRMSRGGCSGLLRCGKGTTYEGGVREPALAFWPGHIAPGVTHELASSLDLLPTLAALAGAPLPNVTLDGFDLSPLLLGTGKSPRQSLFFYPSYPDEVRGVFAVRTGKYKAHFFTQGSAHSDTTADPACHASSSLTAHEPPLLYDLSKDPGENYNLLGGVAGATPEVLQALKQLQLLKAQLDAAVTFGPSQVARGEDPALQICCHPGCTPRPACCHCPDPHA
# “And” between values parts separate entries of the source, which are not always exact repeats. Equal entries are not always repeated. The inconclusive results got no clear call from the source; some entries with a clear call stand among them for comparison. A potency beside an inconclusive call is a rough fit, not a confirmed value. The source made the active and inactive calls. Unless noted, calls follow the shape of the dose curve; as a rule, active = well fitted curve in the direction sought with a large enough effect; inconclusive = small, poorly fitted or top-dose-only effect, or another doubt; inactive = no such curve, though single readings can be large; an effect the other way counts as inactive or inconclusive.
# Columns and labels:
# [1] = qHTS for Activators of Parkin Expression: LOPAC Validation Assay (NLuc Reporter) (AID 720572; also: potency is read from the fitted curve at half-maximal effect;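 as to activation: 0% = DMSO and 100% = positive control compound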)
# In short: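 Neuronal line stably carrying a FLuc/NLuc coincidence reporter under the Parkin promoter, seeded 24 h, then dosed in 7-point series for 24 h at 37 C. NLuc luminescence read after FLuc; normalized to DMSO and positive control (100%).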
# [2] = qHTS assay for small molecule antagonists of the retinoid-related orphan receptor gamma (ROR-gamma) signaling pathway - cell viability counter screen (AID 720652; active = well fitted curve in the direction sought with a large enough effect in the repeat runs; inconclusive = weak or mixed curves; inactive = no such curve, though single readings can be large; an effect the other way counts as inactive or inconclusive;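 also: potency is read from the fitted curve at half-maximal effect; compound exposure lasted 16 hr before ATP read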); conditions: RORgamma reporter cell line viability counter screen
# In short: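 Luminescence from CellTiter-Glo after 30 min at room temperature reported cellular ATP as the cytotoxicity measure. Cells were the CHO reporter line with doxycycline-induced ROR-gamma expression, exposed to compound for 16 hr at 37 C.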
# [3] = target: Arylsulfatase A (Homo sapiens) (UniProt P15289); assay: qHTS screen for enhancers of Arylsulfatase A (ASA1): LOPAC Validation Assay (AID 720538); conditions: activity change, positive = activation: at 57.5 µM (top of the series); also: potency is read from the fitted curve at half-maximal effect; as to activity change, positive = activation: 0% is about no effect
# In short: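 First, ASA-I179S fibroblasts from an MLD patient adhered for 6 hrs. Next, compounds were added for 48h. Then pNCS substrate (0.5mM final) with lysis buffer reacted 14h at room temperature before NaOH stop and fluorescence measurement.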
# [4] = qHTS Screen of the MIPE 4.0 Collection Against Ewings Sarcoma (RDES) (AID 1259252); also: nearly all actives have a fitted effect of over 35% in size; also: potency is read from the fitted curve at half-maximal effect;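 as to viability (percent of control): 100% = DMSO-treated cells and 0% = medium-only wells without cells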
# In short: (§1)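 Here, cells in 5% FBS RPMI were exposed for two days (48 h) to compound dilutions added four hours after plating. ATP-based CellTiter-Glo luminescence measured viability, normalized to vehicle and no-cell blanks.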
# [5] = Identifying Small Molecule Inhibitors of Pancreatic Cancer Stem Cells (A2780, Spheroid) (AID 1259357); conditions: Potency: A2780 spheroid viability; viability (percent of control): at 46.1 µM (top of the series);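 also: compound exposure lasted 48 h before the ATP luminescence read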; also: potency is read from the fitted curve at half-maximal effect;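 as to viability (percent of control): 100% = DMSO treated cells and 0% = wells without cells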
# In short: (§2)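 Cytotoxicity read by CellTiter-Glo luminescence after 48 h compound exposure at 37C; percent activity scaled between DMSO-treated cells and cell-free wells. Spheroid formats used cells pre-formed 14 days in stem cell media on hydrogel.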
# [6] = Identifying Small Molecule Inhibitors of Pancreatic Cancer Stem Cells (Panc1, Spheroid) (AID 1259359); conditions: Panc1 spheroid cancer stem cell viability; viability, % of control: at 46.1 µM (top of the series) unless noted;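 also: compound exposure lasted 48 h before reading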; also: potency is read from the fitted curve at half-maximal effect
# In short: as §2
# [7] = Identifying Small Molecule Inhibitors of Pancreatic Cancer Stem Cells (A278, Adherent) (AID 1259361); conditions: viability (% of control): at 46.1 µM (top of the series) unless noted; also: nearly all actives have a fitted effect of over 35% in size;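 as to viability (% of control): 100% = DMSO-treated cells and 0% = cell-free media-only wells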
# In short: (§3)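 Luminescent ATP readout (CellTiter-Glo) quantifies surviving cells after a 48 h drug incubation. Normalization uses DMSO wells as no inhibition and media-only wells as full inhibition; bortezomib served as positive control.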
# [8] = qHTS Assay for Identifying Gametocytocidal Compounds (AID 743244); also: potency is read from the fitted curve at half-maximal effect;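 as to max response: % is scaled to controls: 0 for no effect and ±100 for the full control effect; actives lower the fluorescent signal which means gametocytes are killed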; conditions: P. falciparum 3D7 stage III-V gametocytes, alamarBlue, 72 h; max response: hits give low values
# In short: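 Stage III-V P. falciparum 3D7 gametocytes, 20,000 per well, were exposed to compounds for 72 h at 37C, 5% CO2. AlamarBlue was then added for 24 h and viability was read as fluorescence at Ex 525/Em 598 nm.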
# [9] = Identifying Small Molecule Inhibitors of Pancreatic Cancer Stem Cells (SN12C, Adherent) (AID 1259358);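 also: potency is read from the fitted curve at half-maximal effect; cell survival measured after 48 h of compound exposure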
# In short: as §3
# [10] = Identifying Small Molecule Inhibitors of Pancreatic Cancer Stem Cells (SN12C, Spheroid) (AID 1259360); conditions: Potency: SN12C spheroid viability; also: potency is read from the fitted curve at half-maximal effect;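 as to viability (% of control): 100% = DMSO-treated cells and 0% = wells without cells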
# In short: as §2
# [11] = qHTS Screen of the MIPE 4.0 Collection Against Ewings Sarcoma (TC71) (AID 1259253); also: nearly all actives have a fitted effect of over 40% in size; also: potency is read from the fitted curve at half-maximal effect
# In short: as §1
smiles,measurement,setting,value
Cc1cnc(NC(=O)C2=C(O)c3ccccc3S(=O)(=O)N2C)s1,Potency,[1],"inconclusive: 14.6 µM [activator, partial curve]"
COc1ccc2[nH]cc(CCNC(C)=O)c2c1,Potency,[2],"inconclusive: 29.8 µM [cytotoxic, partial curve, poor fit]"
CN(C)CCCC1(c2ccc(F)cc2)OCc2cc(C#N)ccc21 (stereo unspecified),Potency,[3],inactive
same,Potency,[4],"inconclusive: 18.7 µM [inhibitor, partial curve, poor fit]"
O=C(O)[C@H](Cc1c[nH]c2ccccc12)N1C(=O)c2ccccc2C1=O,Potency,[4],inactive
same,viability (percent of control),[5],inconclusive: 124%
same,Potency,[6],"inconclusive: 2.09 µM [rising, full curve, poor fit]"
same,viability (% of control),[7],inconclusive: 107
CN1CCN(c2cc(C(=O)Nc3ccc4c(c3)-c3c(c(C(N)=O)nn3-c3ccc(F)cc3)CC4)c(Cl)cn2)CC1,Potency,[8],"inconclusive: 37.2 µM [inhibitor, single point]"
same,Potency,[4],active: 2.64 µM
same,Potency,[5],"inconclusive: 2.35 µM [cytotoxic, full curve, poor fit]"
same,Potency,[9],"inconclusive: 29.6 µM [cytotoxic, single point]"
same,Potency,[6],active: 23.5 µM
same,Potency,[10],"inconclusive: 33.2 µM [cytotoxic, single point]"
COc1ccc2ccc(=O)oc2c1CC=C(C)C,Potency,[11],"inconclusive: 20.9 µM [inhibitor, partial curve, poor fit]"
CCOC(=O)C(C)Oc1cccc2c(=O)n(CC(=O)Nc3ccc4c(c3)OCCO4)ccc12 (stereo unspecified),Potency,[4],"inconclusive: 16.6 µM [inhibitor, partial curve]"
same,Potency,[5],"inconclusive: 10.5 µM [rising, full curve, poor fit]"
same,"viability, % of control",[6],inconclusive: 86.3%
same,Potency,[10],inactive
Cc1cc(OCCCS(C)(=O)=O)cc(C)c1-c1cccc(COc2ccc3c(c2)OC[C@H]3CC(=O)O)c1,Potency,[11],"inconclusive: 20.9 µM [inhibitor, single point]"
CCn1c(=O)c2c(nc(C=Cc3ccc(OC)c(OC)c3)n2C)n(CC)c1=O,Potency,[11],inactive
C[C@H](CCC(=O)O)[C@H]1CC[C@H]2[C@H]3[C@@H](CC[C@]12C)[C@@]1(C)CC[C@@H](O)C[C@H]1C[C@@H]3O,Potency,[11],"inconclusive: 33.2 µM [inhibitor, single point]"
CCCCc1oc2ccc(NS(C)(=O)=O)cc2c1C(=O)c1ccc(OCCCN(CCCC)CCCC)cc1,Potency,[8],"inconclusive: 22.4 µM [inhibitor, single point]"
same,Potency,[4],active: 23.5 µM
N=C(N)c1ccc2cc(OC(=O)c3ccc(N=C(N)N)cc3)ccc2c1,Potency,[11],"inconclusive: 37.2 µM [inhibitor, single point]"
Cn1cnc2c(F)c(Nc3ccc(Br)cc3F)c(C(=O)NOCCO)cc21,Potency,[11],inactive
CCCCC(F)(F)[C@@]1(O)CC[C@H]2[C@H](CC(=O)[C@@H]2CCCCCCC(=O)O)O1,Potency,[11],active: 2.96 µM
C=CCc1cccc(C=NNC(=O)CN2CCN(Cc3ccccc3)CC2)c1O,Potency,[3],"inconclusive: 0.0107 µM [activator, full curve, poor fit]"
same,Potency,[4],"inconclusive: 10.5 µM [inhibitor, partial curve, poor fit]"
CC(=O)NC(CS)C(=O)O (stereo unspecified),Potency,[11],inactive
CN1C(C(=O)Nc2ccccn2)=C(O)c2sccc2S1(=O)=O,Potency,[11],"inconclusive: 20.9 µM [inhibitor, single point]"
CC(C)[N+]1(C)[C@@H]2CC[C@H]1CC(OC(=O)C(CO)c1ccccc1)C2 (stereo partly specified),Potency,[11],inactive
CN(C)CCC=C1c2ccccc2C=Cc2ccccc21,Potency,[3],inactive
same,Potency,[4],"inconclusive: 20.9 µM [inhibitor, single point]"
O=C1NC(O)CCN1[C@@H]1O[C@H](CO)[C@H](O)[C@H]1O (stereo partly specified),Potency,[11],inactive
CCC(c1ccc(O)cc1)C(CC)c1ccc(O)cc1 (stereo unspecified),Potency,[11],"inconclusive: 1.05 µM [inhibitor, full curve]"
C=CC(=O)Nc1cccc(Oc2nc(Nc3ccc(N4CCN(C)CC4)cc3OC)ncc2Cl)c1,Potency,[8],active: 14.8 µM
same,Potency,[4],active: 0.0187 µM
same,Potency,[5],"inconclusive: 16.6 µM [cytotoxic, partial curve, poor fit]"
same,Potency,[6],"inconclusive: 37.2 µM [cytotoxic, single point]"
same,Potency,[10],"inconclusive: 26.4 µM [cytotoxic, single point]"
CC(C)(C)OC(=O)Nc1ccc(-c2cc(C(=O)NCCCCCCC(=O)NO)no2)cc1,Potency,[8],active: 9.35 µM
same,Potency,[4],active: 2.09 µM
same,viability (percent of control),[5],inconclusive: 115%
same,"viability, % of control",[6],inconclusive: 43.3%
same,Potency,[10],active: 16.6 µM
Cc1n[nH]c(C)c1Cc1sc2c(c1C(=O)N1C[C@H](O)CO1)c(=O)n(C)c(=O)n2CC(C)C,Potency,[4],inactive
same,Potency,[5],inactive
same,"viability, % of control",[6],inconclusive: 74.9%
same,viability (% of control),[7],inconclusive: 112
CC(=O)SC[C@@H](C)C(=O)N1CCC[C@H]1C(=O)N[C@@H](Cc1ccccc1)C(=O)O,Potency,[4],inactive
same,viability (percent of control),[5],inconclusive: 109%
same,Potency,[6],inconclusive: 0.001 µM [cytotoxic]
same,Potency,[10],inactive
same,IC50 (viability decrease),[7],"inconclusive: 0.0209 µM [cytotoxic, partial curve, poor fit]"
C1COC(NC(C2CC2)C2CC2)=N1,Potency,[3],"inconclusive: 5.36 µM [activator, partial curve, poor fit]"
same,Potency,[1],inactive
same,max response,[8],inactive: 8.63% and inactive: 12.8%
same,Potency,[4],inactive
CC(C)NC[C@@H](C(=O)N1CCN(c2ncnc3c2[C@H](C)C[C@H]3O)CC1)c1ccc(Cl)cc1,Potency,[11],active: 11.8 µM
CCCCCN(CCC12CC3CC(CC(C3)C1)C2)C(=O)NCCCc1ccncc1,Potency,[8],"inconclusive: 74.3 µM [inhibitor, single point]"
same,Potency,[4],active: 16.6 µM
same,Potency,[5],"inconclusive: 0.0015 µM [rising, full curve, poor fit]"
same,Potency,[6],"inconclusive: 37.2 µM [cytotoxic, partial curve, poor fit]"
same,Potency,[10],inactive
same,IC50 (viability decrease),[7],"inconclusive: 13.2 µM [cytotoxic, partial curve]"
CN(C)c1nc(Cc2ccc(NC(=O)c3ccc4ccccc4c3)cc2)nc(Cl)c1CC(=O)O,Potency,[11],inactive
CCOc1cc2ncc(C#N)c(Nc3ccc(F)c(Cl)c3)c2cc1NC(=O)C=CCN(C)C,Potency,[8],"inconclusive: 23.5 µM [inhibitor, single point]"
same,Potency,[4],active: 0.105 µM
same,Potency,[5],"inconclusive: 18.7 µM [cytotoxic, partial curve, poor fit]"
same,Potency,[6],active: 16.6 µM
same,Potency,[10],active: 1.48 µM
same,IC50 (viability decrease),[7],active: 20.9 µM
CN(C)CC(=O)N1CCC(c2ccc(NC(=O)c3ncc(C#N)[nH]3)c(C3=CCCCC3)c2)CC1,Potency,[11],active: 16.6 µM
Cn1cc(C[C@@H](N)C(=O)O)c2ccccc21,Potency,[11],inactive
CCC(=O)N1CCN(c2ccc(-n3c(=O)ccc4cnc5ccc(-c6cnc7ccccc7c6)cc5c43)cc2C(F)(F)F)CC1,Potency,[8],active: 5.26 µM
same,Potency,[4],"inconclusive: 0.0209 µM [inhibitor, full curve]"
same,Potency,[5],"inconclusive: 0.296 µM [cytotoxic, full curve]"
same,Potency,[6],"inconclusive: 0.0296 µM [cytotoxic, full curve, poor fit]"
same,IC50 (viability decrease),[7],"inconclusive: 0.0332 µM [cytotoxic, full curve]"
CCN(CC)CCOc1ccc(Nc2ncc3cc(-c4c(Cl)cccc4Cl)c(=O)n(C)c3n2)cc1,Potency,[8],"inconclusive: 2.09 µM [inhibitor, full curve]"
same,Potency,[4],active: 1.87 µM
same,Potency,[5],active: 13.2 µM
same,Potency,[9],active: 0.662 µM
same,Potency,[6],active: 1.05 µM
same,Potency,[10],active: 16.6 µM
CC=C1NC(=O)[C@H]2CSSCCC=C[C@H](CC(=O)N[C@H](C(C)C)C(=O)N2)OC(=O)[C@H](C(C)C)NC1=O,Potency,[8],active: 0.59 µM
same,Potency,[4],active: 0.0148 µM
same,Potency,[5],"inconclusive: 3.72 µM [rising, full curve]"
same,Potency,[6],"inconclusive: 0.0047 µM [cytotoxic, full curve, poor fit]"
same,Potency,[10],active: 0.0053 µM
same,IC50 (viability decrease),[7],active: 0.0053 µM
CC(=O)O[C@@]12CO[C@H]1C[C@H](O)[C@@]1(C)C(=O)[C@H](O)C3=C(C)[C@@H](OC(=O)C(O)[C@@H](NC(=O)OC(C)(C)C)c4ccccc4)C[C@@](O)([C@@H](OC(=O)c4ccccc4)[C@@H]21)C3(C)C (stereo partly specified),Potency,[11],inactive
CCC(=O)NCC[C@@H]1CCc2ccc3c(c21)CCO3,Potency,[11],"inconclusive: 2.35 µM [inhibitor, partial curve, poor fit]"
CCN(CC)CCCCNc1nc2cc(Cl)c(Cl)cc2nc1-c1ccc(-c2cccs2)s1,Potency,[8],"inconclusive: 23.5 µM [inhibitor, partial curve, poor fit]"
same,Potency,[4],"inconclusive: 37.2 µM [inhibitor, single point]"
same,Potency,[5],"inconclusive: 2.96 µM [cytotoxic, full curve, poor fit]"
same,Potency,[9],"inconclusive: 29.6 µM [cytotoxic, single point]"
same,Potency,[6],"inconclusive: 37.2 µM [cytotoxic, single point]"
same,Potency,[10],"inconclusive: 29.6 µM [cytotoxic, single point]"
C[C@]1(CO)CN(c2cc(C(=O)Nc3ccc4c(c3)-c3c(c(C(N)=O)nn3-c3ccc(F)cc3)CC4)c(Cl)cn2)C[C@@]1(C)CO,Potency,[4],active: 14.8 µM
same,Potency,[5],inactive
same,Potency,[6],"inconclusive: 7.43 µM [cytotoxic, partial curve, poor fit]"
Cc1cnc(Nc2ccc(N3CCN(C)CC3)cc2)nc1Nc1cccc(S(=O)(=O)NC(C)(C)C)c1,Potency,[11],active: 2.64 µM
Cn1c(=O)c2c(ncn2CC(O)CO)n(C)c1=O (stereo unspecified),Potency,[11],inactive
C[C@@H]1CC=CC=CC=CC=C[C@@H](O[C@@H]2O[C@H](C)[C@@H](O)[C@H](N)[C@H]2O)C[C@@H]2O[C@](O)(C[C@@H](O)C[C@@H]3O[C@@H]3C=CC(=O)O1)C[C@H](O)[C@@H]2C(=O)O,Potency,[11],"inconclusive: 4.18 µM [inhibitor, full curve]"
